Paper PMC12569377, “P-Rex1 limits the agonist-induced internalization of GPCRs independently of its Rac-GEF activity” (Cell Reports, 2025)
These are yes or no findings as the source states them, for the method shown. Binding can be weak; no strength is given.

The chains behind the UniProt entries cited, without tags or fusion partners. Where a name states a change or a piece, a line headed by the entry shows the natural chain unless it says otherwise.
UniProt P25098: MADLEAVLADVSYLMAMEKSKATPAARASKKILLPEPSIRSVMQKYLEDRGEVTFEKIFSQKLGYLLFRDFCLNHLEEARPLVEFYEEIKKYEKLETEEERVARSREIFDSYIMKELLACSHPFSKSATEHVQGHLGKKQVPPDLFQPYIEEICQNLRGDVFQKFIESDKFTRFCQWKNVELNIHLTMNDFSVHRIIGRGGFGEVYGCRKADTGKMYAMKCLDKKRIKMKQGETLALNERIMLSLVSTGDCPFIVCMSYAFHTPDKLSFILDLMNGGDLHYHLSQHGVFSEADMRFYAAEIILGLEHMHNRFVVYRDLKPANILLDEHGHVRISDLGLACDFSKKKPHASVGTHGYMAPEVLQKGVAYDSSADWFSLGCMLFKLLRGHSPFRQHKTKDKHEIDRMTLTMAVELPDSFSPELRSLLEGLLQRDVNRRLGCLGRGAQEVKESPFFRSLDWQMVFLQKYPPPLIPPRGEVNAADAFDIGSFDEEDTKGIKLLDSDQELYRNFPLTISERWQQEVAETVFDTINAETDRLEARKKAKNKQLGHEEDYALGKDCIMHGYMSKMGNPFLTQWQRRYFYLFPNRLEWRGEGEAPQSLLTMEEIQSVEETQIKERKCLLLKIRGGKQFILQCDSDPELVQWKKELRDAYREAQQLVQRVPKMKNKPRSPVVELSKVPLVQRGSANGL
UniProt Q8TCU6: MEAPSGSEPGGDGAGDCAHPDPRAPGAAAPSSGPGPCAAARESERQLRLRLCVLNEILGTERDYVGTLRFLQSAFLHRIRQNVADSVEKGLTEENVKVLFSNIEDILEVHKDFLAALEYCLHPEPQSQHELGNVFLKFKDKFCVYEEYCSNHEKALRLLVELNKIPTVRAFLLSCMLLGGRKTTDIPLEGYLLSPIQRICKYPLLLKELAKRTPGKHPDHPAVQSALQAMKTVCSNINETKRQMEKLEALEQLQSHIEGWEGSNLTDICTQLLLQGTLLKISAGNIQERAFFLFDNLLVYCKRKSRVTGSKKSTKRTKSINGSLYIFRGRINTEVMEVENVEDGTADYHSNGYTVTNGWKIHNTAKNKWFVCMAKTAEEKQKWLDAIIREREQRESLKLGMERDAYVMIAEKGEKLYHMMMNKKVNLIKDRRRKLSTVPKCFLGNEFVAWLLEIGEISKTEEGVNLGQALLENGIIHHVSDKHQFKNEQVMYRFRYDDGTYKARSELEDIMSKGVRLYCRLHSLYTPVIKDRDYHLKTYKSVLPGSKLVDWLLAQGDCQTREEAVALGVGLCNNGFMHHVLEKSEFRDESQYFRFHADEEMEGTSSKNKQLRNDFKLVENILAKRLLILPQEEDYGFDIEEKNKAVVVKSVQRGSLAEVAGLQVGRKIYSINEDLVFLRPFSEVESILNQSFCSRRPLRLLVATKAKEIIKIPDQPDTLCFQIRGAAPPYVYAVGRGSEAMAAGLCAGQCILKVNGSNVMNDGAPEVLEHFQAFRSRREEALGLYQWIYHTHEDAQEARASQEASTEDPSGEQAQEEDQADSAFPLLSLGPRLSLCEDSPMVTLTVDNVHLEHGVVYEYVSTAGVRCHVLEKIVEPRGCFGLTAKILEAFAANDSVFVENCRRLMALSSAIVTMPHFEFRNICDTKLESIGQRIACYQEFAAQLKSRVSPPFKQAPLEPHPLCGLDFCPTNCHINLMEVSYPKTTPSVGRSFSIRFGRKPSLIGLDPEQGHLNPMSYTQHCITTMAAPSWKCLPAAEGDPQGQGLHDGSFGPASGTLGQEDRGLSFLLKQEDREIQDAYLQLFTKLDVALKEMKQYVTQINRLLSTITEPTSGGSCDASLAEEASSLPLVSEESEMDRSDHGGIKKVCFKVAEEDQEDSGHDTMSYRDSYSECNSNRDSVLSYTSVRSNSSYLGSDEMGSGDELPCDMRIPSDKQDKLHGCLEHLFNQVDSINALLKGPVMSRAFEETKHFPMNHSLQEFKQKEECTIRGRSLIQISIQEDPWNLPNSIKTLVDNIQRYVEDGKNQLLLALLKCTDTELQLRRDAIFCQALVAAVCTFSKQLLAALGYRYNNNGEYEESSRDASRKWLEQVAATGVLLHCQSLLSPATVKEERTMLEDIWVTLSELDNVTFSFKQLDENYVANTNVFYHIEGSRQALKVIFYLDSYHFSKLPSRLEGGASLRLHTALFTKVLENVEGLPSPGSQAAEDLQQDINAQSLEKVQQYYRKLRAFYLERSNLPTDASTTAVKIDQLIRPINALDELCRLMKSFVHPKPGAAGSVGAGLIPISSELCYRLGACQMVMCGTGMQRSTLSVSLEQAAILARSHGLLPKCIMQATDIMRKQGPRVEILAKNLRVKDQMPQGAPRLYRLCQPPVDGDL

Target: Recombinant human GST-Grk2 (human) (UniProt P25098)
Test: pull-down; 5 pmol P-Rex1 or P-Rex2 protein (2.5 pmol for P-Rex1 mutants) with 5 pmol GST, GST-Grk2 or GST-Grk5 in 20 μL detergent-free buffer (50 mM HEPES pH 7.2, 150 mM NaCl), 1 h on ice; GST proteins isolated on magnetic glutathione agarose, 45 min at 4°C, 4 washes in lysis buffer 2 (1% NP-40); western blot with P-Rex1 or P-Rex2 and GST antibodies; both purified

For EE-P-Rex1 ΔPDZ (from UniProt Q8TCU6), the binding was “binds”.

EE-P-Rex1 ΔPH (from UniProt Q8TCU6) was tested, and the binding was “binds”.
